Source: the supplement of paper PMC6078165

Test system: MDAMB436
Experiment: relative JC-1 red fluorescence (viability) vs pre-drug, coculture with fibroblast (fraction); higher = more viable cancer cells
Description: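 JC-1 labelled TNBC cells cocultured 1:1 (1,500 cells each) with CellTrace Violet stained primary or stromal fibroblasts in 384-well plates in FluoroBrite medium, treated with one of 42 anticancer drugs at 0.1, 1, 10 or 100 uM. JC-1 red fluorescence (mitochondrial integrity in cancer cells only) was read by plate reader every 8 h for 72 h. Values are normalised to each well's pre-drug value. The stock of one drug was tenfold lower, so its dose labels may be too high.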

CCc1c2c(nc3ccc(OC(=O)N4CCC(N5CCCCC5)CC4)cc13)-c1cc3c(c(=O)n1C2)COC(=O)[C@]3(O)CC [Irinotecan]
relative JC-1 red fluorescence
Conditions | 8 h | 16 h | 24 h | 32 h | 40 h | 48 h | 56 h | 64 h | 72 h
10 µM, coculture fibroblast: C12385 | 0.826 ± 0.057 | 0.744 ± 0.015 | 0.767 ± 0.012 | 0.696 ± 0.021 | 0.662 ± 0.027 | 0.639 ± 0.025 | 0.62 ± 0.023 | 0.599 ± 0.018 | 0.597 ± 0.021
10 µM, coculture fibroblast: H6013 | 0.818 ± 0.028 | 0.7846 ± 0.0075 | 0.7658 ± 0.0012 | 0.7654 ± 0.001 | 0.756 ± 0.01 | 0.7738 ± 0.0071 | 0.747 ± 0.013 | 0.736 ± 0.017 | 0.703 ± 0.021
10 µM, coculture fibroblast: H6019 | 0.805 ± 0.013 | 0.797 ± 0.014 | 0.816 ± 0.015 | 0.759 ± 0.015 | 0.748 ± 0.024 | 0.732 ± 0.029 | 0.717 ± 0.032 | 0.703 ± 0.041 | 0.696 ± 0.041
10 µM, coculture fibroblast: H6076 | 0.768 ± 0.052 | 0.719 ± 0.03 | 0.695 ± 0.023 | 0.641 ± 0.02 | 0.616 ± 0.024 | 0.592 ± 0.022 | 0.576 ± 0.013 | 0.555 ± 0.012 | 0.5488 ± 0.004
10 µM, coculture fibroblast: H6231 | 0.805 ± 0.04 | 0.727 ± 0.084 | 0.689 ± 0.069 | 0.617 ± 0.079 | 0.584 ± 0.087 | 0.549 ± 0.074 | 0.538 ± 0.064 | 0.506 ± 0.074 | 0.494 ± 0.056
10 µM, coculture fibroblast: HADF | 0.8441 ± 0.0066 | 0.786 ± 0.037 | 0.764 ± 0.026 | 0.718 ± 0.022 | 0.705 ± 0.013 | 0.706 ± 0.019 | 0.651 ± 0.015 | 0.633 ± 0.0075 | 0.591 ± 0.01
10 µM, coculture fibroblast: HCFa | 0.812 ± 0.021 | 0.7674 ± 0.0073 | 0.729 ± 0.0073 | 0.697 ± 0.014 | 0.6669 ± 0.0045 | 0.6709 ± 0.0057 | 0.6097 ± 0.0042 | 0.60188 ± 0.00022 | 0.5546 ± 0.0027
10 µM, coculture fibroblast: HCPF | 0.798 ± 0.045 | 0.691 ± 0.018 | 0.666 ± 0.035 | 0.599 ± 0.034 | 0.571 ± 0.04 | 0.52 ± 0.033 | 0.493 ± 0.026 | 0.468 ± 0.031 | 0.455 ± 0.025
10 µM, coculture fibroblast: HHSteC | 0.831 ± 0.01 | 0.8264 ± 0.0034 | 0.7912 ± 0.0069 | 0.76 ± 0.014 | 0.755 ± 0.022 | 0.76 ± 0.013 | 0.709 ± 0.015 | 0.686 ± 0.0095 | 0.637 ± 0.011
10 µM, coculture fibroblast: HMF | 0.702 ± 0.021 | 0.6345 ± 0.005 | 0.6019 ± 0.0041 | 0.55 ± 0.0098 | 0.535 ± 0.005 | 0.497 ± 0.01 | 0.493 ± 0.0059 | 0.478 ± 0.0053 | 0.468 ± 0.014
10 µM, coculture fibroblast: HPFa | 0.9378 ± 0.0061 | 0.869 ± 0.036 | 0.867 ± 0.042 | 0.839 ± 0.064 | 0.841 ± 0.07 | 0.844 ± 0.079 | 0.79 ± 0.093 | 0.772 ± 0.1 | 0.719 ± 0.11
10 µM, coculture fibroblast: HUF | 0.873 ± 0.015 | 0.8003 ± 0.0025 | 0.7856 ± 0.0056 | 0.7186 ± 0.0043 | 0.6716 ± 0.004 | 0.6368 ± 0.0024 | 0.609 ± 0.016 | 0.594 ± 0.016 | 0.593 ± 0.014
10 µM, coculture fibroblast: Hs5 | 0.752 ± 0.059 | 0.666 ± 0.017 | 0.635 ± 0.03 | 0.577 ± 0.026 | 0.558 ± 0.024 | 0.52 ± 0.022 | 0.523 ± 0.018 | 0.497 ± 0.028 | 0.494 ± 0.025
10 µM, coculture fibroblast: Hs27A | 0.898 ± 0.021 | 0.84 ± 0.037 | 0.808 ± 0.026 | 0.795 ± 0.033 | 0.78 ± 0.039 | 0.837 ± 0.046 | 0.767 ± 0.05 | 0.774 ± 0.041 | 0.716 ± 0.037
10 µM, coculture fibroblast: Hs343T | 0.7107 ± 0.0032 | 0.682 ± 0.046 | 0.65 ± 0.078 | 0.606 ± 0.082 | 0.579 ± 0.098 | 0.541 ± 0.11 | 0.525 ± 0.11 | 0.507 ± 0.1 | 0.499 ± 0.1
10 µM, coculture fibroblast: WS1 | 0.832 ± 0.037 | 0.755 ± 0.029 | 0.763 ± 0.0088 | 0.702 ± 0.012 | 0.672 ± 0.018 | 0.644 ± 0.034 | 0.625 ± 0.04 | 0.6 ± 0.05 | 0.587 ± 0.056
100 µM, coculture fibroblast: C12385 | 0.8546 ± 0.0073 | 0.855 ± 0.0063 | 0.8688 ± 0.0034 | 0.8226 ± 0.0055 | 0.7899 ± 0.0028 | 0.78 ± 0.013 | 0.767 ± 0.01 | 0.7532 ± 0.0075 | 0.747 ± 0.02
100 µM, coculture fibroblast: H6013 | 0.958 ± 0.015 | 0.846 ± 0.15 | 0.848 ± 0.17 | 0.915 ± 0.075 | 0.872 ± 0.18 | 0.787 ± 0.13 | 0.756 ± 0.051 | 0.732 ± 0.0081 | 0.847 ± 0.091
100 µM, coculture fibroblast: H6019 | 0.864 ± 0.015 | 0.857 ± 0.011 | 0.882 ± 0.019 | 0.836 ± 0.016 | 0.83 ± 0.018 | 0.834 ± 0.038 | 0.818 ± 0.044 | 0.819 ± 0.051 | 0.82 ± 0.054
100 µM, coculture fibroblast: H6076 | 0.821 ± 0.057 | 0.803 ± 0.061 | 0.823 ± 0.066 | 0.799 ± 0.089 | 0.789 ± 0.1 | 0.764 ± 0.1 | 0.782 ± 0.1 | 0.786 ± 0.11 | 0.785 ± 0.12
100 µM, coculture fibroblast: H6231 | 0.785 ± 0.093 | 0.798 ± 0.094 | 0.852 ± 0.072 | 0.783 ± 0.066 | 0.755 ± 0.035 | 0.716 ± 0.009 | 0.722 ± 0.0094 | 0.709 ± 0.03 | 0.683 ± 0.025
100 µM, coculture fibroblast: HADF | 0.92 ± 0.019 | 0.939 ± 0.03 | 0.946 ± 0.037 | 0.924 ± 0.038 | 0.943 ± 0.055 | 0.823 ± 0.14 | 0.928 ± 0.089 | 0.927 ± 0.094 | 0.894 ± 0.093
100 µM, coculture fibroblast: HCFa | 0.9469 ± 0.0024 | 0.956 ± 0.013 | 0.957 ± 0.013 | 0.943 ± 0.013 | 0.958 ± 0.013 | 0.9813 ± 0.0065 | 0.95 ± 0.01 | 0.972 ± 0.016 | 0.953 ± 0.023
100 µM, coculture fibroblast: HCPF | 0.787 ± 0.039 | 0.776 ± 0.038 | 0.805 ± 0.036 | 0.749 ± 0.035 | 0.721 ± 0.037 | 0.687 ± 0.041 | 0.68 ± 0.037 | 0.672 ± 0.035 | 0.662 ± 0.04
100 µM, coculture fibroblast: HHSteC | 0.96 ± 0.013 | 0.933 ± 0.036 | 0.927 ± 0.047 | 0.856 ± 0.12 | 0.862 ± 0.14 | 0.94 ± 0.052 | 0.93418 ± 0.00057 | 0.814 ± 0.17 | 0.803 ± 0.13
100 µM, coculture fibroblast: HMF | 0.844 ± 0.036 | 0.822 ± 0.031 | 0.846 ± 0.057 | 0.8 ± 0.046 | 0.774 ± 0.064 | 0.745 ± 0.071 | 0.743 ± 0.083 | 0.723 ± 0.084 | 0.704 ± 0.093
100 µM, coculture fibroblast: HPFa | 0.893 ± 0.1 | 0.923 ± 0.069 | 0.877 ± 0.14 | 0.872 ± 0.12 | 0.897 ± 0.12 | 0.865 ± 0.17 | 0.822 ± 0.17 | 0.873 ± 0.07 | 0.902 ± 0.022
100 µM, coculture fibroblast: HUF | 0.914 ± 0.023 | 0.886 ± 0.047 | 0.896 ± 0.057 | 0.836 ± 0.052 | 0.786 ± 0.054 | 0.761 ± 0.046 | 0.74 ± 0.058 | 0.736 ± 0.056 | 0.733 ± 0.059
100 µM, coculture fibroblast: Hs5 | 0.768 ± 0.045 | 0.753 ± 0.043 | 0.79 ± 0.033 | 0.755 ± 0.014 | 0.783 ± 0.014 | 0.749 ± 0.0088 | 0.7971 ± 0.0015 | 0.77934 ± 0.00054 | 0.786 ± 0.0013
100 µM, coculture fibroblast: Hs27A | 0.832 ± 0.18 | 0.95 ± 0.068 | 0.878 ± 0.085 | 0.778 ± 0.037 | 0.766 ± 0.047 | 0.861 ± 0.03 | 0.9241 ± 0.0066 | 0.785 ± 0.019 | 0.912 ± 0.065
100 µM, coculture fibroblast: Hs343T | 0.879 ± 0.018 | 0.83 ± 0.036 | 0.911 ± 0.093 | 0.857 ± 0.077 | 0.811 ± 0.059 | 0.76 ± 0.055 | 0.735 ± 0.032 | 0.721 ± 0.015 | 0.7035 ± 0.0054
100 µM, coculture fibroblast: WS1 | 0.8486 ± 0.0055 | 0.83386 ± 0.00035 | 0.8372 ± 0.0021 | 0.7879 ± 0.00096 | 0.77 ± 0.011 | 0.757 ± 0.0076 | 0.743 ± 0.011 | 0.7249 ± 0.007 | 0.7205 ± 0.006

± gives the standard deviation of the averaged measurements. The reference is the same well before dosing, and untreated signal decays as well.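 Fibroblast labels name human fibroblasts: mostly primary ones from tissues such as uterus (C12385, HUF), lung (H6013), bone (Hs27A), adrenal (HADF) and skin (WS1), plus mammary HMF and breast cancer-associated Hs343T. The cancer cells are basal-like or mesenchymal-like triple-negative breast cancer lines. The paper calls a changed response a hit when it shifts by more than 3x the replicate standard deviation. The tissue of the other fibroblasts is not given here.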
